Among all 580,000 compounds or so, about 6,100 (1.1%) were called active. Inconclusive results, whose numbers are uncertain, are shown with a selection of clear calls. Calls follow the shape of the dose curve; as a rule, active = well fitted inhibition curve with a large enough effect; inconclusive = small, poorly fitted or top-dose-only effect, or another doubt; inactive = no such curve, though single readings can be large or run the other way. Potencies of inconclusive entries are doubtful fits and often do not repeat.
Each compound was assayed against Polyunsaturated fatty acid lipoxygenase ALOX12 (Homo sapiens) (UniProt P18054) (assay: Primary qHTS assay for inhibitors of human arachidonate 12S-lipoxygenase (ALOX12): Round 2). Settings: purified 12hLO, xylenol orange hydroperoxide absorbance; activity change, negative = inhibition: at 108 µM (top of the series) unless noted.
Method in brief: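 Purified human 12hLO at 150 nM in 25 mM Hepes, 0.01% Triton X-100, pH 7.0, preincubated 15 min at room temperature with compound. Reaction started with 40 uM arachidonic acid, 30 min at room temperature. Hydroperoxide measured by Fe-xylenol orange, 573/405 nm absorbance ratio.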
% is scaled to controls: 0 for no effect and ±100 for the full control effect; potency is read from the fitted curve at half-maximal effect.

The chains behind the UniProt entries cited, without tags or fusion partners. Where a name states a change or a piece, a line headed by the entry shows the natural chain unless it says otherwise.
UniProt P18054: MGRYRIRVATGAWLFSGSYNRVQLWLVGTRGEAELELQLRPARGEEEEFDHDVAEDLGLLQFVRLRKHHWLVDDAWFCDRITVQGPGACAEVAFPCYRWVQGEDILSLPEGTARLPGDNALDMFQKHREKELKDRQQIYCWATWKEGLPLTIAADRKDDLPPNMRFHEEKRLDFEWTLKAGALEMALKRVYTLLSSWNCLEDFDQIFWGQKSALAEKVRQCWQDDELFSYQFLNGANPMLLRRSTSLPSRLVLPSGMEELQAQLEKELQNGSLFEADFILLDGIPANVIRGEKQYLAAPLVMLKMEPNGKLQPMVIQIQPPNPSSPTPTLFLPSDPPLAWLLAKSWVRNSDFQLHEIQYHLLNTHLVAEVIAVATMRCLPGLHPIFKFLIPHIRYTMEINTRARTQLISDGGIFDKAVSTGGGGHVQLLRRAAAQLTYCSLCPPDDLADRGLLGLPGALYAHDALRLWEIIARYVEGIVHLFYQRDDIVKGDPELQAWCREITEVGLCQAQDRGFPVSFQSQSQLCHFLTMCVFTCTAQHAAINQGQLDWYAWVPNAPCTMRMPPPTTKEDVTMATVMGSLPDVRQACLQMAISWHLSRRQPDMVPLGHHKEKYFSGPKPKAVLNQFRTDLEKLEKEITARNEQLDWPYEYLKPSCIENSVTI

| Structure (SMILES) | activity change, negative = inhibition | Potency |
| --- | --- | --- |
| COc1ccc(OCC(=O)Nc2ccccc2N2CCCCC2)cc1 | inactive: 366% |  |
| COc1ccc(Cn2cc(CN(C)C3CN(Cc4cn(Cc5ccc(OC)cc5)nn4)S(=O)(=O)C3)nn2)cc1 (stereo not drawn) |  | inconclusive: 31.6 µM [inhibitor, partial curve, poor fit] |
| Cc1ccc(NC(=O)C(=O)NCCCN2CCCC2=O)cc1 | inactive: -8.75% |  |
| CCC(CC)NC(=O)C1CCN(c2ccc(S(=O)(=O)N3CCOCC3)cc2[N+](=O)[O-])CC1 |  | inconclusive: 79.4 µM [inhibitor, single point] |
| COCC1CN(S(=O)(=O)c2cccnc2)CC12CCNCC2 (stereo not drawn) |  | inconclusive: 8.91 µM [inhibitor, full curve, poor fit] |
| Cc1ccc(C=Cc2ccccn2)cc1 | inactive: -9.09% |  |
| CCOc1ccccc1OCC(=O)Nc1cccc(S(=O)(=O)NC2=NCCCCC2)c1 | inactive: 0.132% |  |
| O=C(O)/C(=C\c1ccc(Cl)c([N+](=O)[O-])c1)c1ccc(S(=O)(=O)N2CCCC2)s1 |  | active: 17.8 µM |
| O=C(N/N=C\c1ccc([N+](=O)[O-])o1)C1COc2ccccc2O1 (stereo not drawn) | inactive: -15.3% |  |
| C/C(=N\NC(=S)Nc1cccc(C)c1)c1ccc(Br)cc1 |  | inconclusive: 112 µM [inhibitor, partial curve, poor fit] |
| COc1cc(C(=O)N2CCC(N3CCN(C)CC3)CC2)ccc1Nc1ncc2c(n1)N(C)c1ccccc1C(=O)N2C |  | inactive |
| O=S(=O)(Nc1ncccn1)c1ccc(Nc2ncnc3ccccc23)cc1 |  | inconclusive: 3.55 µM [inhibitor, full curve, poor fit] |
| COc1ccc(C2Cn3nnc(C(=O)N4CCN(C(=O)Cc5ccc(Cl)cc5)CC4)c3CO2)cc1 (stereo not drawn) | inactive: 0.814% |  |
| CCOC(=O)c1c(C)[nH]c(C(=O)COC(=O)[C@H](C)NC(=O)c2ccccc2Cl)c1C |  | inconclusive: 44.7 µM [inhibitor, partial curve, poor fit] |
| Clc1ccc(C(Cn2ccnc2)OCc2ccsc2Cl)c(Cl)c1 (stereo not drawn) |  | inconclusive: 4.85 µM [inhibitor, full curve] |
| O=C(Nc1ccc(N2CCCCCC2)cc1)c1cccc(S(=O)(=O)N2CCOCC2)c1 |  | inconclusive: 25.1 µM [inhibitor, partial curve, poor fit] |
| COC(=O)c1ccc(Cl)cc1N(Cc1c(F)cccc1Cl)S(C)(=O)=O | inactive: 166% |  |
| O=c1[nH]c2cccc(Cl)c2n(CCNc2ncc(C(F)(F)F)cc2Cl)c1=O |  | inconclusive: 10 µM [inhibitor, partial curve, poor fit] |
| O=S(=O)(Cc1ccccc1)NCc1cccc(CNS(=O)(=O)Cc2ccccc2)c1 |  | active: 35.5 µM |
| CCN(CC)C(=O)c1sc2nc(N3CCOCC3)c3c(c2c1N)CCN(C)C3 |  | inconclusive: 31.6 µM [inhibitor, single point] |
| Cc1ccsc1C(=O)Nc1ccccc1N1CCCC1 |  | inconclusive: 35.5 µM [inhibitor, partial curve, poor fit] |
| O=Cc1c[nH]c2ncccc12 |  | inconclusive: 112 µM [inhibitor, single point] |

| Structure (SMILES) | activity change, negative = inhibition | Potency |
| --- | --- | --- |
| O=C(Cn1cnc2ccccc2c1=O)N1CCN(S(=O)(=O)c2ccc(F)cc2)CC1 | inactive: -19.5% |  |
| N#Cc1c(NC(=O)CSc2nc3ccccc3[nH]2)sc2c1CCCCC2 |  | inconclusive: 44.7 µM [inhibitor, partial curve, poor fit] |
| Cc1cccnc1N1CCN(Cc2ccc(-n3cncn3)cc2)CC1 | inactive: 59.6% |  |
| CCOc1ccc(/C=N/OC(=O)c2ccccc2I)cc1 | inactive: -22% |  |
| CN1CCN(C(=O)C2=C[C@H](c3ccc4c(c3)OCO4)C[C@H](OCc3ccc(CO)cc3)O2)CC1 |  | inconclusive: 1.78 µM [inhibitor, single point] |
| NC(=O)NC(=O)CSc1nnc(-c2ccco2)n1Cc1ccccc1 | inactive: 0% |  |
| COc1ccc(NC(=O)c2ccc3c(c2)NC(C)(COc2ccccc2)CO3)cc1OC (stereo not drawn) |  | inconclusive: 63.1 µM [inhibitor, partial curve, poor fit] |
| Cc1ccc(-c2c3c(=O)n(C)c(=O)n(C)c3c3n2CCOC3c2coc3ccccc3c2=O)cc1 (stereo not drawn) |  | inconclusive: 35.5 µM [inhibitor, partial curve] |
| O=C(NCc1ccc(F)cc1)c1ccc(Nc2ncc(-c3cccc(F)c3)cn2)cc1 |  | inconclusive: 79.4 µM [inhibitor, partial curve, poor fit] |
| Clc1ccccc1CSc1cnnc2ccccc12 |  | inconclusive: 70.8 µM [inhibitor, partial curve, poor fit] |
| N#Cc1ccc(C(=O)N2CC(C(=O)NCCc3ccncc3)C3(CCOCC3)C2)cc1 (stereo not drawn) | inactive: 47.8% |  |
| O=C(Cc1cccc2ccccc12)N(Cc1ccc2cc[nH]c2c1)C1CC1 |  | inconclusive: 44.7 µM [inhibitor, partial curve, poor fit] |
| CSc1ccc(/C=C(\C(=O)O)c2ccc(S(=O)(=O)N3CCCCC3)s2)cc1 |  | inconclusive: 50.1 µM [inhibitor, partial curve, poor fit] |
| COc1ccc(CN2CCN(C(=O)c3ccc(S(=O)(=O)N4CCCCCC4)cc3)CC2)cc1 |  | inconclusive: 31.6 µM [inhibitor, partial curve, poor fit] |
| COc1ccc(C2CC(c3ccccc3)=NN2C(=O)COC(=O)c2cnc(Cl)c(Cl)c2)cc1 (stereo not drawn) | inactive: -14.7% |  |
| CNC(=O)CCn1ncc2cc(OCc3ccccc3-c3cccc(C)c3)ccc21 |  | inconclusive: 56.2 µM [inhibitor, partial curve] |
| COc1ccc(OCC(=O)Nc2nc(-c3ccc(Br)cc3)ns2)cc1 |  | inconclusive: 89.1 µM [inhibitor, partial curve, poor fit] |
| Cc1ccc(SC(Sc2ccc(C)cc2)=C(Cl)/C=N/O)cc1 |  | inconclusive: 50.1 µM [inhibitor, single point] |
| C#CCn1c2ccccc2c2nc3ccccc3nc21 | inactive: -11.5% |  |
| CCCN1CCN(CCCN)CC1 |  | inconclusive: 3.98 µM [inhibitor, full curve, poor fit] |
| Cc1cccc(OCC(=O)NC2CCN(C(=O)c3cc4c(=O)[nH]c(C)cn4n3)CC2)c1 | inactive: 4.6% |  |

Looked up by structure from the list above, three records:

| Structure (SMILES) | activity change, negative = inhibition | Potency |
| --- | --- | --- |
| C#CCn1c2ccccc2c2nc3ccccc3nc21 | inactive: -11.5% |  |
| NC(=O)NC(=O)CSc1nnc(-c2ccco2)n1Cc1ccccc1 | inactive: 0% |  |
| CNC(=O)CCn1ncc2cc(OCc3ccccc3-c3cccc(C)c3)ccc21 |  | inconclusive: 56.2 µM [inhibitor, partial curve] |

Source: PubChem BioAssay AID1671190 (National Center for Advancing Translational Sciences (NCATS), 2021)
